Test results published in patent US20160347854A1.

Chains of the proteins cited; added tags and fusions are not shown. Lines headed by an entry give the natural chain unless they say otherwise; changes in a name come on top.
UniProt O60667: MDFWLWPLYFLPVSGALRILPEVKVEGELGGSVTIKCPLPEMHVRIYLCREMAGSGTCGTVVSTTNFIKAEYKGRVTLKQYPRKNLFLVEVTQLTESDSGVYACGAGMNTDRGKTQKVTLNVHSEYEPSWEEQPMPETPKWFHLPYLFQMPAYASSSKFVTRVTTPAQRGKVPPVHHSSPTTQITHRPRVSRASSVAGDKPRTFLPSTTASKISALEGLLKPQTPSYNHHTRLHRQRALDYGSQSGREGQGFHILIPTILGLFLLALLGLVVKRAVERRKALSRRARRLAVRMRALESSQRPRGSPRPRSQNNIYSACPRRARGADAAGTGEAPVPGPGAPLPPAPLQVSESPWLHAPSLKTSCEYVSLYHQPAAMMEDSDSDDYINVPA

Biological target: TOSO (UniProt O60667)
Experiment: flow cytometry on TOSO-positive and TOSO-negative tumor cells, detected with PE-conjugated anti-human-IgG1 antibody

- binding: binds
B1: anti-TOSO scFv-Fc fusion protein (Fc fusion, not shown: a dimerising Fc or GST)
chain: EVQLVETGGGLVQPGKSLELTCATSGFTFNTAWMHWVRQSPDKRLEWIARIKDTSNNYATDYVESMKGRFTISRDDSKGSVNLQMNSLKEEDTATYYCTTDFYDGTYYWNYWGQGVMVTVSSGGGGSGGGGSGGGGSSYELIQPPSAAVTLGNTVSLTCVGDELPKRYAYWYQQKPDQSIVRVIYEDSVRPPGISDRFSGSSSGTTATLTIRDAQNEDEADYYCQSTYGDDKLYIFGGGTKLTVLG

Results are given in words; binding and its absence hold for the method and conditions named. Binding calls can cover weak binding; strength is not graded here. Tags and fused reporters may be left off the sequences shown.
